From PubChem BioAssay AID493014 (National Center for Advancing Translational Sciences (NCATS), 2011)
Some of the results follow. Shown are side measurements of this screen, not its main read-out; they come without a call. The list favours compounds with an active or inconclusive main result. The note in brackets gives the kind of curve behind each potency; many fits are weak.

Test: qHTS Assay to Find Inhibitors of Chronic Active B-Cell Receptor Signaling
Conditions: ABC-DLBCL IkBa-CBG/CBR reporter, luminescence ratio (green luciferase fused to IkBa over red control in TMD8 lymphoma cells), 4 h
Procedure, shortened: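 Cell line TMD8 (human ABC DLBCL), stably expressing tet-inducible CBG68-IkBa fusion and CBR; IMDM/0.5% FBS; cpd up to 46 uM; dox induction, 4 h, 37C/5% CO2; dual luminescence; green/red ratio; MG132 control.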

[1] = measured here: CBR red luminescence, cell number

With CC(C)c1nnc(NC(=O)CSc2nnc(-c3ccco3)o2)s1 the AC50 [1] was 12.6 µM [falling, partial curve, poor fit].
In the case of Cc1cc(NC(=O)CSc2n[nH]c(-c3ccccc3Br)n2)no1, the AC50 [1] is reported as 2.06 µM [falling, partial curve, poor fit].
With C=CCSc1nnc(-c2cc(C(C)(C)C)nn2Cc2ccc(F)cc2)n1C the AC50 [1] was 35.5 µM [rising, partial curve, poor fit].
With Cc1ccc(-c2n[nH]c(=S)n2/N=C/C=C\c2ccccc2[N+](=O)[O-])cc1 the AC50 [1] was 3.26 µM [rising, single point].
For Cc1cc(C)n(-c2nnc3n2N=C(c2ccccc2)CS3)n1, the AC50 [1] was 0.164 µM [rising, full curve, poor fit].
With C=CCOc1ccc2ccccc2c1CNn1cn[nH]c1=S the AC50 [1] was 4.47 µM [rising, partial curve, poor fit] and the AC50 (measured here: IkBa-CBG green luminescence) was 15.8 µM [falling, single point].
For CCCCCC(=O)NNC1CC(=O)N(c2ccccc2)C1=O (stereo not drawn), the AC50 [1] was 5.62 µM [falling, single point].
For Cc1ccc2c(c1)C(=O)OC(C(=O)Nc1ccccc1C(=O)O)C2 (stereo not drawn), the AC50 [1] was 1.12 µM [falling, full curve].
For NC(=O)c1ccc(NC(=O)CCCN2C(=O)c3ccccc3C2=O)cc1, the AC50 [1] was 14.6 µM [rising, partial curve, poor fit].
With O=S(=O)(Nc1ccc(-c2cn3ccccc3n2)cc1)c1ccccc1 the AC50 [1] was 17.8 µM [rising, partial curve, poor fit].
With CCC(=O)Nc1c(S(=O)(=O)c2ccc(C)cc2)c2nc3ccccc3nc2n1C(C)c1ccccc1 (stereo not drawn) the AC50 [1] was 16.4 µM [falling, partial curve].
For CCOC(=O)C1CCN(c2c(N3CCCCCC3)c(=O)c2=O)CC1, the AC50 [1] was 18.4 µM [rising, partial curve, poor fit].
With CC(=O)c1ccc(OC(=O)CCc2nc3ccccc3s2)cc1 the AC50 [1] was 5.01 µM [falling, partial curve, poor fit].
For CC1CC1c1ccc(/C=C(\C#N)C(=O)Nc2ccc(Cl)cc2Cl)o1 (stereo not drawn), the AC50 [1] was 32.6 µM [falling, partial curve, poor fit].
For Cc1cc(C(=O)OCC(=O)c2c(N)n(C)c(=O)n(C)c2=O)c(C)n1-c1ccccc1, the AC50 [1] was 3.66 µM [rising, partial curve, poor fit].
For Cc1nc(NC(=O)c2cc3c(s2)CCCCC3)sc1C(=O)N(C)C, the AC50 [1] was 3.16 µM [falling, single point].
For Cc1ccc(NC(=O)C2CCCN(S(=O)(=O)c3cccs3)C2)cc1 (stereo not drawn), the AC50 [1] was 0.708 µM [falling, full curve, poor fit].
